The source of these data is paper PMC10163288.

The other results are listed elsewhere or left out.

The labels stand for the following.
B1: il10ra_site1_sap_11_mot_47763b419dcba15278d0659274068abf_0001_af2_000000068_0001_35_48_H_._0aba0880d6a430e09be20104961ad3ed_0001_0001_0000100007_0000001_0_0001_ … (protein)
chain: SSSSDREEEVKELIEKLREAVEEGDEELVFKLTIRALSLAIEINNPELREEVARLAREAINSSSS
B2: il10ra_site1_normal_mot_HHH_b2_05323_000000159_0001_1_18_H_._HHH_b1_00466_af2_0001_0000100005_0000001_0 (protein)
chain: SSSSDELLQEALELLKEAFRLALRGNPEEARKVLEEAREILEEAGDERLLRQVEHLERAQSSSSS
B3: il10ra_site1_sap_14_mot_HHH_b1_03314_af2_000000278_0001_42_55_H_._HHH_b1_05793_0001_0000100005_0000001_0_0001 (protein)
chain: SSSSSVEEEVEELIEKAEELRKRGDPRWLELLMEALRIALKAGNPELLEELWEFMHRLAKSSSSS
B4: il10ra_site1_normal_mot_HHH_b1_05326_000000242_0001_1_20_H_._HHH_b1_06269_0001_0000300019_0000001_1 (protein)
chain: SSSSSDEVLELIQEAFRLLLRGDPEEARELVEEAEELAKELNDPALQKAVEIILEAVEANSSSSS
B5: il10ra_site1_sap_20_mot_HHH_b1_05326_000000242_0001_1_20_H_._HHH_b1_06846_af2_0001_0000300021_0000001_0_0001 (protein)
chain: SSSSSDEEELRELLERIEELLEEGDHEEAIRLIIEVIRLAFQLRDEEALQLAWELAKRLASSSSS
B6: il10ra_site1_sap_15_mot_HHH_b1_00682_000000211_0001_1_20_H_._HHH_b1_01856_0001_0000900045_0000001_0_0001_af2pred_0001 (protein)
chain: SSSDAREEVEKLIERVEELLKQGDDEEAKRLLMKALYIAARGEDEEAIQLVLKLFREVLQLSSSS
B7: il10ra_site1_normal_mot_HHH_b2_08186_000000021_0001_43_56_H_._HHH_b1_07279_0001_0000400037_0000001_0 (protein)
chain: SSSSSDEEEVRELLEEAEELARRGNPREAARVLLRALRIIYEAKNPELLRELWEVLRRVASSSSS
B8: il10ra_site1_sap_7_mot_HHH_b2_06795_000000133_0001_42_56_H_._HHH_b2_01770_0001_0000100001_0000002_0_0001 (protein)
chain: SSSSDEEEVEELLEEAKRLAEEGNPREAARLLQEALQHAYQAKNEELLREIWEAVREVAELSSSS
B9: il10ra_site1_sap_14_mot_6805e7cfcec1a9f49da1e1cd80eb4878_0001_af2_000000116_0001_1_14_H_._HEEHE_0687_0001_0000100004_0000001_0_0001 (protein)
chain: SSSSQETFEFLERVIEELKRLWEEGDEEEFERLVREAERYLEERGDQVALIALRHMVEALSSSSS
B10: il10ra_site1_sap_12_mot_e1dd4851c59bc1cdde016f988f6856bd_0001_1_000000200_0001_16_31_H_._HHH_b2_02453_0001_0000600030_0000001_0_0001 (protein)
chain: SSSSSDEDERYARLAIKFARLLARRDPEAARRLIELMISAAEENGDEEAVEELREVLEELSSSSS
B11: il10ra_site1_sap_25_mot_HHH_b1_02397_af2_000000085_0001_39_57_H_._HHH_b1_06551_0001_0000100004_0000002_0_0001 (protein)
chain: SSSDESQEVFEALREAAELRTEGDPEEAHKLLEELEKELREEGDRLLLIQVEFLLRDVEQGSSSS
B12: il10ra_site1_normal_mot_HHH_b2_02337_000000026_0001_38_52_H_._HHH_b2_07301_0001_0000100002_0000002_0 (protein)
chain: SSSSDELEELLERLEEALEEGDQEEFIELAQEVSSLALELGDQEVLKQVWELVQEFERLHSSSSS
B13: il10ra_site1_sap_22_mot_HEEHE_3255_000000102_0001_40_55_H_._HHH_b1_05364_af2_0001_0000300013_0000002_0_0001_af2pred_0001 (protein)
chain: SSSSSRLEEYARVAHFLAKAAAEQGNPEEARRVLERAARVLRQKNDEEALELIEELLEELSSSSS
B14: il10ra_site1_sap_16_mot_HHH_b1_00992_000000182_0001_23_40_H_._HHH_b1_02295_af2_0001_0000300017_0000001_0_0001 (protein)
chain: SEQVREIEELLKRNVEQAIAALAHLLAKSGDPELLRLAKELSRLMFQNPEEARKLVEEILEELKK
B15: il10ra_site1_normal_mot_HHH_b2_07579_000000275_0001_1_19_H_._HHH_b2_02864_0001_0000100008_0000002_0 (protein)
chain: SSSSDLEEEAEELLKELEELGNPVFVFALEHALRDVKATGDPEAKRVLEILIKWIEEALKGSSSS
B16: il10ra_site1_normal_mot_8756ee2cf497b5429c717dfc0c0bcfd6_0001_000000186_0001_1_13_H_._HHH_b1_02771_0001_0000100002_0000001_0_af2pred_0001 (protein)
chain: SSSSSEEAEEVQRLLRRIAELHSEGNPEEAKELAEEAEELARRGNNEVLEVIVEYLEELLNSSSS
B17: il10ra_site1_sap_23_mot_HHH_b2_00952_af2_000000228_0001_1_18_H_._HHH_b2_00788_af2_0001_0000800016_0000001_0_0001_af2pred_0001 (protein)
chain: SSSSSSARFLLESAERAIEIALKAGDPELARRIIKIAELLARQLGDEEVEEELEELKKEADSSSS
B18: il10ra_site1_normal_mot_HHH_b1_08446_000000041_0001_1_19_H_._HHH_b1_01093_0001_0000200027_0000002_0 (protein)
chain: SSSSDEEYELAKEAIKRAQELFENGNPEEAERLLREVIEELEELGDELVVFALRHLLRALTSSSS
B19: il10ra_site1_normal_mot_HHH_b2_07440_af2_000000021_0001_1_18_H_._HHH_b2_05956_0001_0000200027_0000002_0 (protein)
chain: SSSSSDAEEEALELSLKAFRLLLRGNPEEAEEVLKEAEEVAKEAGNERILRILEELLKVASSSSS

The assay concerns the target il10ra, Q13651. The assay is described as follows: yeast display titration.
Regarding B1, the “apparent Kd” value is “inactive: no binding seen”.
Turning to B2, the “apparent Kd” value was “inactive: no binding seen”.
Turning to B3, the “apparent Kd” value is “inactive: no binding seen”.
As to B4, the “apparent Kd” value is “inactive: no binding seen”.
As to B5, the “apparent Kd” value is “inactive: no binding seen”.
B6: the “apparent Kd” value is “inactive: no binding seen”.
Take B7: the “apparent Kd” value was “inactive: no binding seen”.
In the case of B8, the “apparent Kd” value was “inactive: no binding seen”.
Take B9: the “apparent Kd” value was “inactive: no binding seen”.
As for B10, the “apparent Kd” value is “inactive: no binding seen”.
B11: the “apparent Kd” value was “inactive: no binding seen”.
In the case of B12, the “apparent Kd” value is “inactive: no binding seen”.
Turning to B13, the “apparent Kd” value is “inactive: no binding seen”.
The entry for B14 is “inactive: no binding seen”; for B15 it is “inactive: no binding seen”; for B16 it is “inactive: no binding seen”.
For the molecule B17, the “apparent Kd” value was “inactive: no binding seen”.
The same measure for B18: “inactive: no binding seen”.
The same measure for B19: “inactive: no binding seen”.
